Structures are written as SMILES. The list does not hold the whole screen: it is rich in T/C values a quarter to a half above the control, in often repeated tests (any T/C) and in doses without a T/C. Other doses and runs of a compound stand elsewhere. T/C gives the treated animals as a percentage of the vehicle group. Some doses have a count of surviving animals in place of a T/C: the source files T/C as zero there, which appears to mark a toxic dose or a test without result, not a measured value. Some survivor counts are full or nearly so, which does not show that the dose was tolerated: survival well below the control is almost never listed, so the zero probably covers shortened survival too. Counts of survivors are from the toxicity check (mostly the fifth day) where no day follows; animals may have died later. Schedule codes are those of the source, read here as Q, the interval in days (D) or hours (H), X, the number of doses. Some entries were tested several times; the results are listed from low to high. Where survival is the endpoint, the PubChem record calls one and a half times the control and up active, and a quarter to a half above the control has no call in these data; cut-offs in other NCI protocols can differ.

The subject of the test is P388 leukemia ip, CD2F1 mice, survival T/C. Nature of the test: NCI In Vivo Anticancer Drug Screen. Data for tumor model P388 Leukemia (intraperitoneal) in CD2F1 (CDF1) mice. The note with it: T/C endpoint: median survival time, higher T/C = longer survival.
Where [1] appears, read: dose: 50.0 mg/kg/injection, schedule: Q01DX009 (ip), vehicle: saline with Tween-80.
The mark [2] stands for this setting: dose: 200.0 mg/kg/injection, schedule: Q01DX005 (ip), vehicle: saline with Tween-80.
[3] abbreviates: dose: 120.0 mg/kg/injection, schedule: Q01DX005 (ip), vehicle: saline with Tween-80.
[4] abbreviates: dose: 240.0 mg/kg/injection, schedule: Q01DX005 (ip), vehicle: saline with Tween-80.
Where [5] appears, read: dose: 200.0 mg/kg/injection, schedule: Q01DX009 (ip), vehicle: saline.

Consider `COc1cccc2c1C(=O)c1c(O)c3c(c(O)c1C2=O)C[C@@](O)(c1csc(-c2ccccc2)n1)C[C@@H]3OC1CC(N)C(O)C(C)O1` (stereo partly specified), for which the T/C by setting is: (dose: 0.78 mg/kg/injection, schedule: Q01DX009 (ip), vehicle: water) 129 % of control; (dose: 1.56 mg/kg/injection, schedule: Q01DX009 (ip), vehicle: water) 129 and 133 % of control; (dose: 3.13 mg/kg/injection, schedule: Q01DX009 (ip), vehicle: water) 139 and 140 % of control; (dose: 6.25 mg/kg/injection, schedule: Q01DX009 (ip), vehicle: water) 142 and 144 % of control. The survivor count is listed as 6 of 6 (dose: 12.5 mg/kg/injection, schedule: Q01DX009 (ip), vehicle: water) and 0 of 6, 4 of 6, 5 of 6 (dose: 25.0 mg/kg/injection, schedule: Q01DX009 (ip), vehicle: water).
Regarding `C=C[C@@]1(C)CC(=O)[C@]2(O)[C@@]3(C)[C@@H](O)CCC(C)(C)[C@@H]3[C@H](O)[C@@H](OC(C)=O)[C@@]2(C)O1`, the survivor count reads like this: (dose: 25.0 mg/kg/injection, schedule: Q01DX005 (ip), vehicle: saline + Tween-80 + alcohol) 0 of 6; (dose: 50.0 mg/kg/injection, schedule: Q01DX005 (ip), vehicle: saline + Tween-80 + alcohol) 0 of 6.
Consider `C#Cc1cccc(N=Cc2ccc(C=Nc3cccc(C#C)c3)cc2)c1`, for which the survivor count was 6 of 6 under setting [1] and 6 of 6 (dose: 100.0 mg/kg/injection, schedule: Q01DX009 (ip), vehicle: saline with Tween-80).
Regarding `O=C(CBr)N1c2ccccc2S(=O)(=O)c2ccc3ccccc3c21`, the T/C was 125 and 134 % of control (dose: 100.0 mg/kg/injection, schedule: Q01DX009 (ip), vehicle: Klucel (hydroxypropylcellulose) (HPC)); 131 % of control (dose: 200.0 mg/kg/injection, schedule: Q01DX009 (ip), vehicle: Klucel (hydroxypropylcellulose) (HPC)).
Turning to `C[n+]1c(C2(C)CCCO2)sc2ccccc21` (stereo unspecified), the survivor count was 0 of 6 (dose: 120.0 mg/kg/injection, schedule: Q01DX005 (ip), vehicle: saline) and 0 of 6 (dose: 240.0 mg/kg/injection, schedule: Q01DX005 (ip), vehicle: saline).
`Nc1nnc(SCCCCCCSc2nnc(N)s2)s1`: the survivor count under setting [2] is reported as 6 of 6.
As for `CC1=C(N(C)C)C(=O)N(c2ccccc2)CN1C`, the survivor count was 2 of 6 (dose: 30.0 mg/kg/injection, schedule: Q01DX005 (ip), vehicle: saline with Tween-80); 0 of 6 (dose: 60.0 mg/kg/injection, schedule: Q01DX005 (ip), vehicle: saline with Tween-80); 0 of 6 under setting [3]; 0 of 6 under setting [4].
In the case of `CCOC(=O)C(=O)Cc1nc2ccccc2nc1C`, the survivor count under setting [4] is on record as 6 of 6.
As for `N#CC(=C1C=CC(=NO)C=C1)c1ccc(Cl)cc1`, the T/C (dose: 266.0 mg/kg/injection, schedule: Q04DX003 (ip), vehicle: saline with Tween-80) was 145 % of control; the T/C (dose: 400.0 mg/kg/injection, schedule: Q04DX003 (ip), vehicle: saline with Tween-80) was 130 and 135 % of control.
As to `NC(=O)c1csc(-c2ccc(CO)o2)n1`, the survivor count under setting [2] was 5 of 5.
For the molecule `Cc1c2ccccc2c(C)c2c1cc[n+]1ccccc21`, the survivor count reads like this: (dose: 50.0 mg/kg/injection, schedule: Q04DX003 (ip), vehicle: other) 1 of 3; (dose: 100.0 mg/kg/injection, schedule: Q04DX003 (ip), vehicle: other) 0 of 3.
Turning to `CC([NH-])C(=O)O.[Cl][Pt][Cl]` (stereo unspecified), where the note is “dose: 12.5 mg/kg/injection, schedule: Q01DX009 (ip), vehicle: distilled water + Tween-80”, the T/C is 142 % of control. Further, the survivor count reads like this: (dose: 50.0 mg/kg/injection, schedule: Q01DX009 (ip), vehicle: distilled water + Tween-80) 2 of 5; (dose: 100.0 mg/kg/injection, schedule: Q01DX009 (ip), vehicle: distilled water + Tween-80) 0 of 5; (dose: 200.0 mg/kg/injection, schedule: Q01DX009 (ip), vehicle: distilled water + Tween-80) 0 of 5; under setting [5], 2 of 4.
As to `COc1cccc2c1C(=O)c1c(O)c3c(c(O)c1C2=O)CC(O)(C(=O)CO)CC3OC1CC(N)C(O)C(C)O1.[Cl][Pt+2][Cl].[NH2-].[NH2-]` (stereo unspecified), the T/C (dose: 1.0 mg/kg/injection, schedule: Q04DX003 (ip), vehicle: DMSO) was 131 % of control; the T/C (dose: 2.0 mg/kg/injection, schedule: Q04DX003 (ip), vehicle: DMSO) was 145 % of control; the T/C (dose: 4.0 mg/kg/injection, schedule: Q04DX003 (ip), vehicle: DMSO, evaluated on day 30) is 132 % of control; the T/C (dose: 4.0 mg/kg/injection, schedule: Q04DX003 (ip), vehicle: DMSO, evaluated on day 45) is 142 % of control.
Regarding `COc1cc2c(cc1OC)C1C(C)c3ccc(OC)c(OC)c3CN1CC2` (stereo unspecified), the survivor count was 6 of 6 (dose: 100.0 mg/kg/injection, schedule: Q01DX009 (ip), vehicle: saline) and 6 of 6 under setting [5].
As to `CCCCCNC(=O)CCC(NC(=O)c1ccc(N(C)Cc2cnc3nc(N)nc(N)c3n2)cc1)C(=O)O` (stereo unspecified), the T/C (dose: 100.0 mg/kg/injection, schedule: Q01DX009 (ip), vehicle: sodium bicarbonate) was 144 % of control.
In the case of `CC(=O)NS(=O)(=O)c1ccc(N=NC2=C(O)C(c3ccccc3)N(c3ccccc3)C2=O)cc1` (stereo unspecified), the survivor count under setting [4] was 2 of 6.
On to `C=C1C(=O)C2=CC1CCC(=O)C1(C)C(OC(C)=O)CC(OC(C)=O)C(C)(C)C1CC2O` (stereo unspecified), for which the survivor count (dose: 140.0 mg/kg/injection, schedule: Q01DX005 (ip), vehicle: Klucel (hydroxypropylcellulose) (HPC)) was 0 of 6.
Take `COc1cccc2c1C(=O)c1c(O)c3c(c(O)c1C2=O)CC(O)(C(=O)CO)CC3OC1CC2C(OC3COCC(C#N)N32)C(C)O1` (stereo unspecified): the T/C was 126 % of control (dose: 1.0 mg/kg/injection, schedule: Q04DX003 (ip), vehicle: saline with Tween-80); 134 and 136 % of control (dose: 2.0 mg/kg/injection, schedule: Q04DX003 (ip), vehicle: saline with Tween-80); 127 % of control (dose: 4.0 mg/kg/injection, schedule: Q04DX003 (ip), vehicle: saline with Tween-80).
Regarding `CCOc1cc2c(cc1Cc1c(OC)cc(OC)cc1OC)OCO2`, the survivor count under setting [3] is 6 of 6.
Consider `N#Cc1ccc(C(=O)C=C(C(F)(F)F)C(F)(F)F)cc1`, for which the T/C (dose: 5.56 mg/kg/injection, schedule: Q01DX009 (ip), vehicle: saline + alcohol) was 127 % of control; the T/C (dose: 6.25 mg/kg/injection, schedule: Q01DX009 (ip), vehicle: other) was 130 % of control; the T/C (dose: 8.33 mg/kg/injection, schedule: Q01DX009 (ip), vehicle: other) is 140 % of control; the T/C (dose: 8.33 mg/kg/injection, schedule: Q01DX009 (ip), vehicle: saline + alcohol) is 131 % of control; the T/C (dose: 12.5 mg/kg/injection, schedule: Q01DX009 (ip), vehicle: other) is 125 and 130 % of control; the T/C (dose: 12.5 mg/kg/injection, schedule: Q01DX009 (ip), vehicle: saline + alcohol) is 136 % of control. Besides, the T/C (dose: 18.7 mg/kg/injection, schedule: Q01DX009 (ip), vehicle: other) is 140 % of control. Further, the survivor count (dose: 18.7 mg/kg/injection, schedule: Q01DX009 (ip), vehicle: saline + alcohol) was 3 of 6.
Turning to `Cc1oc(-c2ccccc2)nc1C(N)=O`, the T/C (dose: 200.0 mg/kg/injection, schedule: Q01DX009 (ip), vehicle: saline with Tween-80) is 133 % of control.
In the case of `C=C(NC(C)=O)C(=O)O`, the survivor count is, setting by setting: (dose: 25.0 mg/kg/injection, schedule: Q01DX009 (ip), vehicle: saline with Tween-80) 6 of 6; under setting [1], 5 of 6; (dose: 200.0 mg/kg/injection, schedule: Q01DX001 (ip), vehicle: saline with Tween-80) 1 of 6; (dose: 400.0 mg/kg/injection, schedule: Q01DX001 (ip), vehicle: saline with Tween-80) 0 of 6.
